In patent publication US20050215770A1:
These are yes or no findings as the source states them, for the method shown. Some entries that bind do so weakly or less than the wild type. Where a sequence is shown, tags or fusion partners need not be part of it.

T1: Recombinant soluble human Flag-tagged NogoR (amino acids 1 to 309 of SEQ ID NO:2) (human) (UniProt Q9BZR6)
T1 sequence (chain, biotinylated with Sulfo-NHS-LC-Biotin): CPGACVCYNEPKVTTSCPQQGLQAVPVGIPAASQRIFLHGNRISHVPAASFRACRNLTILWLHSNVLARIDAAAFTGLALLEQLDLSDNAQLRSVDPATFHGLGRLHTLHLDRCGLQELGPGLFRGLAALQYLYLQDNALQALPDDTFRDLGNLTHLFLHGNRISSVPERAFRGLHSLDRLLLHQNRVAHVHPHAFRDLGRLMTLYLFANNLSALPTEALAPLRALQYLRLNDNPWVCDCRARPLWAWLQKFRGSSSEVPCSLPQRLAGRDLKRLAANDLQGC


How the values were obtained:
[1] = target: T1, Recombinant soluble human Flag-tagged NogoR (amino acids 1 to 309 of SEQ ID NO:2) (human); experiment: ECL phage screen on biotin-rHuNOGOSR-Flag (positive: 5-fold above background)
[2] = target: T1, Recombinant soluble human Flag-tagged NogoR (amino acids 1 to 309 of SEQ ID NO:2) (human); experiment: ECL phage screen (Example 1)

Binder	binding [1]	binding [2]
NGF0128 (scFv) scFv: QVQLQQSGPGLVRPSQTLSLACTVSGDSISSGDYYWTWIRQHPGKGLEWIGYISTRGSPYYNPSFMNRVAISIDSSKNQFSLNLSSVTAADTAVYYCTRETQHTSIFGVIHNWLDPWGQGTLVTVSSGGGGSGGGGSGGGGSAQAVLTQPSSASGTPGQRVSISCSGSSSNIGSNTVNWYQQLPGTAPKLLIYSGNQRPSGVPDRFSGSKSGTSASLAISGLQSEDEADYYCAAWDDSLNNLVFGPGTKVTVLG	binds	–
NGF3D11 (scFv) scFv: EVQLVESGAEVKKPGSSVKVSCHVSGGTFGGNAFNWVRQAPGQGLEWMGRVIPIYGTSNYAQRFQGRVSITADESTDTAYMELSSLTSDDTAIYYCARDPGSGPYLSYFDSWGRGTLVTVSSGGGGSGGGGSGGGGSAQAVLTQPSSASGTPGQRVTISCSGTYSNIASNTVNWYQQLPGTAPKLLIYNNRQRPSGVPDRFSGSKSGTSASLAISGLQSEDETDYFCAAWDDALNGYVFGTGTKVTVLG	–	binds
NGF0145 (scFv) scFv: QLQLQESGSGLVKPSQTLSLTCAVSGGSISSGDYSWSWIRQPPGKGLEWIGYIYHSGSTYYNPSLKSRVTISIDRSKNQFSLKLSSVTAADTAVYYCARVGDYKEIDAFDIWGKGTLVTVSSGGGGSGGGGSGGGGSAQPVLTQPPSASGTPGQRVTISCSGSSSNIGTNTVNWYQQLPGTAPKLLIYSNTQRPSGVPDRFSGSKSGTSASLAISGLQSEDEADYYCGAWDDSLISGVFGGGTKLTVLG	binds	–
NGF0115 (scFv) scFv: EVQLVQSGAEVKKPGESLRISCKGSGYSFSSYWISWVRQVPGKGLEWMGRIDPSDSYTNYSPSFQGHVTISADKSISTAYLHWSSLKASDTAMYYCATLASADTGMVTDYKYYDMDVWGRGTLVTVSSGGGGSGGGGSGGGGSAQSVVTQPPSVSAAPGQKVTISCSGSNSNIGKNYVSWYQQLPGTAPKLLISDNNARPSGIPDRFSGSKSGASGTLDITGLQTGDEAAYYCKSWDSSLRAEVFGGGTKLTVLG	binds	–
NGF3C11 (scFv) scFv: QVQLQESGPGLVKPSGTLSLTCAVTGDSITSNNWWSWVRQAPGKGLEWIGDVYHTGTTNYNPSLKSRVTISVDESKNQFSLKVTSVTTADTAVYYCAREEYDVWSGPMDVWGQGTLVTVSSGGGGSGGGGSGGGGSAQAVLTQPSSVSGAPGQRVSISCTGSSSNIGAGYDVHWYQQLPGTAPKLLIYGNINRPSGVPDRFSGSKSGTSASLAITGLQAEDEADYYCQSYDSSLRAAVFGGGTKLTVLG	–	binds
NGF0134 (scFv) scFv: EVQLVQSGAEVKKPGESLKISCKGSGYNITNHWIAWVRQMPGKGLEWMGMIYPDDSDTRYSPSFQGQVTMSADKSINTAHLQWRSLKASDTAMYYCARHAHYDGSGYYYFDYWGKGTMVTVSSGGGGSGGGGSGGGGSAQSVLTQPPSVSGAPGQRVTISCTGSRSNIGAGYDVHWYQQLPGTAPKVLIFGNSNRPSGVLDRFSGSKSGTSASLAITGLQAEDEADYYCRSYDSSMSGSRVFGTGTKVTVLG	binds	–
NGF2F11 (scFv) scFv: QVQLVESGGGLVQPGGSLRLSCAASGFTFSSYWMSWVRQAPGKGLEWVANIKQDGSEKYYVDSVKGRFTISRDNAKSSLYLQMNSLRAEDTAVYYCARPQEPPSSLIAHWGQGTMVTVSSGGGGSGGGGSGGGGSAQSVVTQPPSVSAASGQKVTISCSGRTSNIGNNYVSWYQQIPGTAPKLLLYDNNKRPSGIPDRFSGSKSGTIAILGITGLQTGDEADYFCGVWDSSLSSYVFGSGTKVTVLG	–	binds
NGF0114 (scFv) scFv: EVQLVQSGAEVKKPGSSVKVSCKASGDTSSEYSITWVRQVPGQGLEWMGGIIPIFGATYYAQNFQGRVTISADESTSTAYMELGSLRSGDTAVYYCATVIPPTIGGVTHDSEGMDVWGRGTLVTVSSGGGGSGGGGSGGGGSAQSVLTQPPSASGTPGQRVTISCSGSSSNIGSNYVYWYQQLPGTAPKLLIYRNNQRPSGVPDRFSGSKSGTSASLAISGLRSEDEADYYCAAWDDGHNGWVFGGGTKVTVLG	binds	–
NGF2G10 (scFv) scFv: EVQLVESGAEVKKPGASVKVSCKTSGYIFSTYGITWVRQAPGQGLEWMGWISSKNGNTNYAQKFQGRVTMTTDTSTSTAYMELSSLTSDDTAVYYCARDSAYYYDSSGIGNWFDPWGKGTLVTVSSGGGGSGGGGSGGGGSAQAVLTQPSSVSGAPGQRVTISCTGSSSNIGAGYDVHWYQKLPDTGPKLLIFGNVIRPSGVPDRFSGSKSGTSASLAITGLQAEDEAEYFCQSYDTTLSGSVVFGGGTKLTVLG	–	binds
NGF3H03 (scFv) scFv: EVQLVETGGGVVQPGRSLRLSCAASGFGFRNSAMHWVRQAPGKGLEWVALIWSDGITKFYADSVKGRLTVSRDNSESTLYLQINSLRDEDTAVYYCARDGHYSVGFGFDVWGQGTMVTVSSGGGGSGGGGSGGGGSALNFMLTQPHSVSESPGKTVTISCTRSSGSIASNYVQWYQQRPGSAPTTVIYEDNQRPSGVPDRFSGSIDSSSNSASLTISGLKTEDEADYYCQSYDSSNQGVFGGGTKLTVLG	–	binds
NGF0121 (scFv) scFv: EVQLVQSGAEVKKSGSSVKVSCKASGDIFTNYAINWVRQAPGQGLEWMGRILPLFGTTNYAQRFQGRITITADESTGTAYMELSSLKSDDTAVYYCARPLSGDYYDTSGYHWWGKGTLVTVSSGGGGSGGGGSGGGGSAQSVLTQPPSASGTPGQRVTISCSGRSGNIGTNAVNWYQQLPGAAPKLIIYSNSQRPSGVPHRFSASRSGTSASLAISGLQSEDEADYYCSAWDDSLDGVVFGGGTKVTVLG	binds	–

Results, then the binder that gave them:

binding [1]	binding [2]	Binder
binds	–	NGF0347 (scFv) scFv: EVQLVESGAEVKKPGSSVKVSCHVSGGTFGGNAFNWVRQAPGQGLEWMGRVIPIYGTSNYAQRFQGRVSITADESTDTAYMELSSLTSDDTAIYYCARDPGSGPYLSYFDSWGRGTLVTVSSGGGGSGGGGSGGGGSAQAVLTQPSSASGTPGQRVTISCSGTYSNIASNTVNWYQQLPGTAPKLLIYNNRQRPSGVPDRFSGSKSGTSASLAISGLQSEDETDYFCAAWDDALNGYVFGTGTKVTVLG
binds	–	NGF0259 (scFv) scFv: QVQLVQSGGGVVQPGRSLRLSCAASGLSFSSYGMHWVRQAPGKGLEWVAVIWFDGSNKYYADSVKGRFTISRDTSKNTLYLQMNSLRVEDTAVYYCAGEVRGSFGEFDYWGRGTMVTVSSGGGGSGGGGSGGGGSAQSVLTQPPSVSVAPGKTARITCGGNNVESKSVQWYQQKSGQAPVLVIYYNSYRPSGIPERFSGSNSGNTATLTISRVEAGDAADYYCQVWDSTTDHYVFGSGTKVTVLG
binds	–	NGF0271 (scFv) scFv: QVQLVESGGGLVQPGGSLRLSCAASGFTFSSYWMSWVRQAPGKGLEWVANIKQDGSEKYYVDSVKGRFTISRDNAKSSLYLQMNSLRAEDTAVYYCARPQEPPSSLIAHWGQGTMVTVSSGGGGSGGGGSGGGGSAQSVVTQPPSVSAASGQKVTISCSGRTSNIGNNYVSWYQQIPGTAPKLLLYDNNKRPSGIPDRFSGSKSGTIAILGITGLQTGDEADYFCGVWDSSLSSYVFGSGTKVTVLG
binds	–	NGF0282 (scFv) scFv: EVQLVESGAEVKKPGASVKVSCKTSGYIFSTYGITWVRQAPGQGLEWMGWISSKNGNTNYAQKFQGRVTMTTDTSTSTAYMELSSLTSDDTAVYYCARDSAYYYDSSGIGNWFDPWGKGTLVTVSSGGGGSGGGGSGGGGSAQAVLTQPSSVSGAPGQRVTISCTGSSSNIGAGYDVHWYQKLPDTGPKLLIFGNVIRPSGVPDRFSGSKSGTSASLAITGLQAEDEAEYFCQSYDTTLSGSVVFGGGTKLTVLG
binds	–	NGF0190 (scFv) scFv: QVQLQQSGPGLVKPSETLSLTCTVSGDSITSYYWSWVRQPPGKTLEWIGYIFDTRTTKYNPSLKSRVTISADTSKNQFSLKLSSVTAADTAVYYCARDAGTIFDYWGQGTMVTVSSGGGGSGGGGSGGGGSAQSVLTQPPSVSVAAGQTARITCGEANIGRRSVHWYQRRPGQAPLMVIYYDTARRSGIPERFSGSNSGDTATLTISRVEAGDEADYYCQAWDFSSDHPVFGGGTKVTVLG
binds	–	NGF0175 (scFv) scFv: QVQLQESGPGLVKPSETLSLTCTVSGDSIGSSIYYWAWIRQPPGKGLEWIGRIYYSGTTNYNPSLKSRVTMSVDTSKNQFSLKLSSVTAADTAVYYCARSKGTKWERREFDYWGRGTMVTVSSGGGGSGGGGSGGGGSAQAVLTQPSSASGTPGQTVTISCSGSSSNIGSNPAHWYQQFPGTAPTLIIYYDGRRPSGVPDRFSGSKSGTSASLAISGLQSEDEADFYCASWDDNLNEYVFGTGTKVTVLG
binds	–	NGF0238 (scFv) scFv: EVQLVQSGAEVKKPGSSVKVSCKASGGTLSSYAINWVRQAPGQGLEWMGQIIPMFGTMNYAQKFQGRVTISADESTGTAYMELSSLRYDDTATYYCAREVSGTRNYYYYGLDVWGQGTLVTVSSGGGGSGGGGSGGGGSAQAVLTQPSSVSGAPGQRVTIPCTGSSSNIGAGYDVHWYQHLPGTAPKLLIYGNINRPSGVPDRFSGSKSGTSASLAITGLQAEDEADYYCQSYDNRLSVSVVFGGGTQLTVLS
binds	–	NGF0186 (scFv) scFv: QVQLVQSGGGLLQPGRSLRLSCAGSGFSFRDHALSWFRQAPGKGLEWVGFIRSKGYGGTTEYAASMAGRLNISRDDSKSIAYLQVNSLKTEDTAVYYCSRDSDYYASSGMGYAFDMWGKGTMVTVSSGGGGSGGGGSGGGGSAQAVLTQPSSVSGAPGQRVTIPCTGSSSNIGAGYGVHWYQQLPGTAPKLLIYDSDKRPSGVPDRFSGSKSGSSGSLAITGLQPEDEADYYCQSYDSSLSGSNVFGTGTKVTVLG
